The record followed here is US20210179686A1, “CELL SORTING SYSTEMS AND METHODS OF USE” (MEMORIAL SLOAN-KETTERING CANCER CENTER, priority 2018, published 2021).

Results are given in words; binding and its absence hold for the method and conditions named. Some binding calls cover weakened binding; strength is not graded here.

The target of test [1] is CD28-9C CD28TM CD3zΔ capture leucine zipper. The test can be described thus: CD34 and CD20 staining, flow cytometry (FIG. 16). (In general: In flow cytometry, cells or beads pass a laser one at a time.)
For test [2] the target is unchanged. Put plainly: CD34 and CD20 staining of double-transduced cells, flow cytometry (FIG. 16).

B1: RQR-RR12EE345L (designed binder)
chain: CPYSNPSLCSGGGGSELPTQGTFSNVSTNVSPAKPTTTACPYSNPSLCGGGGSGGGSALGLEIRAAFLRQRNTALRTEVAELEQEVQRLENEVSQYETRYGPLGGGK
On to B1, for which the binding entry in test [1] and in test [2] was “binds” in each case.
